Literature values, collected in patent US20240197687A1, “METHODS OF TREATING NEUROINFLAMMATION AND INHIBITING MONOAMINE OXIDASE-A AND RESTORING/UPREGULATING/INCREASING IL-13 AND AND PGC-1 BY ADMINISTERING ORAL DOSAGE FORM CONTAINING MICRONIZED AND NONMICRONIZED PARTICULATE METAXALONE, ALGINIC ACID AND PROPYLENE GLYCOL ALGINATE” (Primus Pharmaceuticals, Inc., priority 2022, published 2024).
For at least one compound, name, drawing or mass did not settle the structure.

How the values were obtained:
[1] = tested on: paclitaxel-induced neuropathic pain; conditions: via induction of the NRF-2/HO-1 signaling pathway in the spinal cord; cited from earlier work
[2] = tested on: transgenic mouse model of Huntington's disease; conditions: cited from earlier work

Compound | paclitaxel-induced neuropathic pain [1] | PGC-1α expression and disease effects [2]
CN(CCOc1ccc(CC2SC(=O)NC2=O)cc1)c1ccccn1 (centres unmarked) [rosiglitazone] | significantly attenuate | –
CC(C)(Oc1ccc(CCNC(=O)c2ccc(Cl)cc2)cc1)C(=O)O [bezafibrate] | – | upregulates PGC-1α and exerts beneficial effects
